Assay results reported in US11484708B2, “Methods and devices for surgical pre-treatment” (Vomaris Innovations, Inc., priority 2014, dated 2022).
For at least one compound, name, drawing or mass did not settle the structure.

Assays:
HUVEC cells [1] = assay: EF-induced reorientation of endothelial cells (orientation index Oi); format: cell-based, human; settings: inhibitor 50 μM, 1 hour before and during EF
HUVEC cells [2] = assay: EF-induced elongation of endothelial cells (long:short axis ratio); format: cell-based, human; settings: inhibitor 50 μM; vs control
Protocol: Tissue culture reagents were obtained from Life Technologies UK. […] Rhodamine-phalloidin (E3478) was obtained from Molecular Probes (Leiden, The Netherlands) and anti-tubulin conjugated with FITC was obtained from Sigma. The HUVEC cell line from ATCC was used prior to passage 10. Dulbecco's modified Eagle's medium (DMEM) with 10% fetal bovine serum (FBS) was used for culture cells and EF exposure experiments.
HUVEC cells were seeded in a trough formed by two parallel (1 cm apart) strips of glass coverslip (No. 1, length of 22 mm) fixed to the base of the dish with silicone grease. Scratch lines were made perpendicular to the long axis of the chamber with a fine sterile needle and used as reference marks for directed cell migration. […] Field strengths were measured directly at the beginning of, the end of and during each experiment. […]
A series of images was taken with an image analyser immediately before EF exposure and at 4, 8 and 24 hours of EF exposure. Cell orientation was quantified as an orientation index (Oi), which is defined as Oi=cos2(α), where α is the angle formed by the long axis of a cell with a line drawn perpendicular to the field lines. […] The significance of this two-dimensional orientation distribution against randomness was calculated using Rayleigh's distribution. A long:short axis ratio was calculated for assessment of elongation.

## O=c1cc(N2CCOCC2)oc2c(-c3ccccc3)cccc12 [LY294002]
HUVEC cells [1]
  orientation response of cells in an EF: significantly decreased the orientation response
HUVEC cells [2]
  long:short axis ratio in EF-treated cells: significantly decreased the long:short axis ratio
